In this data set the test system is HepG-2 and L-O2 cell lines. The data set is described as follows: Therapeutic index, ratio of IC50 for L-O2 to IC50 for HepG-2. It counts as cell-based, human. The note with it: IC50 (L-O2)/IC50 (HepG-2).

For `CC(=O)OC(C)(C)/C=C/C(=O)[C@](C)(O)C1[C@H](OC(=O)CCC(=O)OCCCCOc2no[n+]([O-])c2S(=O)(=O)c2ccccc2)C[C@@]2(C)C3CC=C4C(CC(O)C(=O)C4(C)C)[C@]3(C)C(=O)C[C@]12C` (stereo partly drawn) [Compound 10c, 4-(4-((4-(((9R,13R,14S,16R)-17-((R,E)-6-Acetoxy-2-hydroxy-6-methyl-3-oxohept-4-en-2-yl)-2-hydroxy-4,4,9,13,14-pentamethyl-3,11-dioxo-2,3,4,7,8,9,10,11,12,13,14,15,16,17-tetradecahydro-1H-cyclopenta[a]phenanthren-16-yl)oxy)-4-oxobutanoyl)oxy)butoxy)-3-(phenylsulfonyl)-1,2,5-oxadiazole 2-oxide], the “TI (Therapeutic Index)” value worked out at 4.03.

For the compound `CC(=O)OC(C)(C)/C=C/C(=O)[C@](C)(O)C1[C@H](OC(=O)CCCN(C)C(=O)OC(C)(C)C)C[C@@]2(C)C3CC=C4C(C[C@H](O)C(=O)C4(C)C)[C@]3(C)C(=O)C[C@]12C` (stereo partly drawn) [Compound 3f, (2S,9R,13R,14S,16R)-17-((R,E)-6-Acetoxy-2-hydroxy-6-methyl-3-oxohept-4-en-2-yl)-2-hydroxy-4,4,9,13,14-pentamethyl-3,11-dioxo-2,3,4,7,8,9,10,11,12,13,14,15,16,17-tetradecahydro-1H-cyclopenta[a]phenanthren-16-yl 4-((tert-butoxycarbonyl)(methyl)amino)butanoate], the “TI (Therapeutic Index)” value was 0.44.

Turning to `CC(=O)OC(C)(C)C=CC(=O)C(C)(O)C1C(OC(=O)CCC(=O)NCCOc2no[n+]([O-])c2S(=O)(=O)c2ccccc2)CC2(C)C3CC=C4C(CC(O)C(=O)C4(C)C)C3(C)C(=O)CC12C` [Compound 9a, 3-((l1-oxidanyl)(oxo)(phenyl)-l5-sulfanyl)-4-(2-(4-(((9R,13R,14S,16R)-17-((R,E)-6-acetoxy-2-hydroxy-6-methyl-3-oxohept-4-en-2-yl)-2-Hydroxy-4,4,9,13,14-pentamethyl-3,11-dioxo-2,3,4,7,8,9,10,11,12,13,14,15,16,17-tetradecahydro-1H-cyclopenta[a]phenanthren-16-yl)oxy)-4-oxobutanamido)ethoxy)-1,2,5-oxadiazole 2-oxide], the “TI (Therapeutic Index)” value worked out at 1.5.

As to `CC(=O)OC(C)(C)/C=C/C(=O)[C@](C)(O)C1[C@H](OC(=O)/C=C/c2ccc(C#N)cc2)C[C@@]2(C)C3CC=C4C(C[C@H](O)C(=O)C4(C)C)[C@]3(C)C(=O)C[C@]12C` (stereo partly drawn) [Compound 3p, (2S,9R,13R,14S,16R)-17-((R,E)-6-Acetoxy-2-hydroxy-6-methyl-3-oxohept-4-en-2-yl)-2-hydroxy-4,4,9,13,14-pentamethyl-3,11-dioxo-2,3,4,7,8,9,10,11,12,13,14,15,16,17-tetradecahydro-1H-cyclopenta[a]phenanthren-16-yl (E)-3-(4-cyanophenyl)acrylate], the “TI (Therapeutic Index)” value turned out to be 0.63.

For `CCC(=O)O[C@@H]1C[C@@]2(C)C3CC=C4C(C[C@H](O)C(=O)C4(C)C)[C@]3(C)C(=O)C[C@]2(C)C1[C@@](C)(O)C(=O)/C=C/C(C)(C)OC(C)=O` (stereo partly drawn) [Compound 3a, (2S,9R,13R,14S,16R)-17-((R,E)-6-Acetoxy-2-hydroxy-6-methyl-3-oxohept-4-en-2-yl)-2-hydroxy-4,4,9,13,14-pentamethyl-3,11-dioxo-2,3,4,7,8,9,10,11,12,13,14,15,16,17-tetradecahydro-1H-cyclopenta[a]phenanthren-16-yl propionate], the “TI (Therapeutic Index)” value is 1.

For `COc1cccc2c1C(=O)c1c(O)c3c(c(O)c1C2=O)C[C@@](O)(C(=O)CO)C[C@@H]3O[C@H]1C[C@H](N)[C@H](O)[C@H](C)O1` [ADR, adriamycin, reference compound], the “TI (Therapeutic Index)” value was determined as 0.14.

`CC(=O)OC(C)(C)/C=C/C(=O)[C@](C)(O)C1[C@H](OC(=O)C2CCCC2)C[C@@]2(C)C3CC=C4C(C[C@H](O)C(=O)C4(C)C)[C@]3(C)C(=O)C[C@]12C` (stereo partly drawn) [Compound 3c, (2S,9R,13R,14S,16R)-17-((R,E)-6-Acetoxy-2-hydroxy-6-methyl-3-oxohept-4-en-2-yl)-2-hydroxy-4,4,9,13,14-pentamethyl-3,11-dioxo-2,3,4,7,8,9,10,11,12,13,14,15,16,17-tetradecahydro-1H-cyclopenta[a]phenanthren-16-yl cyclopentanecarboxylate]: the “TI (Therapeutic Index)” value was 0.97.

With `CC(=O)OC(C)(C)/C=C/C(=O)[C@](C)(O)C1[C@H](OC(=O)CCCCN(C)C(=O)OC(C)(C)C)C[C@@]2(C)C3CC=C4C(C[C@H](O)C(=O)C4(C)C)[C@]3(C)C(=O)C[C@]12C` (stereo partly drawn) [Compound 3e, (2S,9R,13R,14S,16R)-17-((R,E)-6-Acetoxy-2-hydroxy-6-methyl-3-oxohept-4-en-2-yl)-2-hydroxy-4,4,9,13,14-pentamethyl-3,11-dioxo-2,3,4,7,8,9,10,11,12,13,14,15,16,17-tetradecahydro-1H-cyclopenta[a]phenanthren-16-yl 5-((tert-butoxycarbonyl)(methyl)amino)pentanoate], the “TI (Therapeutic Index)” value was 0.59.

In the case of `CC(=O)OC(C)(C)/C=C/C(=O)[C@](C)(O)C1[C@H](OC(=O)c2ccc(Br)cc2)C[C@@]2(C)C3CC=C4C(C[C@H](O)C(=O)C4(C)C)[C@]3(C)C(=O)C[C@]12C` (stereo partly drawn) [Compound 3k, (2S,9R,13R,14S,16R)-17-((R,E)-6-Acetoxy-2-hydroxy-6-methyl-3-oxohept-4-en-2-yl)-2-hydroxy-4,4,9,13,14-pentamethyl-3,11-dioxo-2,3,4,7,8,9,10,11,12,13,14,15,16,17-tetradecahydro-1H-cyclopenta[a]phenanthren-16-yl 4-bromobenzoate], the “TI (Therapeutic Index)” value amounted to 0.65.

Consider `CC(=O)OC(C)(C)/C=C/C(=O)[C@](C)(O)C1[C@H](OC(=O)CCC(=O)OCCCCCCCCCCCOc2no[n+]([O-])c2S(=O)(=O)c2ccccc2)C[C@@]2(C)C3CC=C4C(CC(O)C(=O)C4(C)C)[C@]3(C)C(=O)C[C@]12C` (stereo partly drawn) [Compound 10j, 4-((11-((4-(((9R,13R,14S,16R)-17-((R,E)-6-Acetoxy-2-hydroxy-6-methyl-3-oxohept-4-en-2-yl)-2-hydroxy-4,4,9,13,14-pentamethyl-3,11-dioxo-2,3,4,7,8,9,10,11,12,13,14,15,16,17-tetradecahydro-1H-cyclopenta[a]phenanthren-16-yl)oxy)-4-oxobutanoyl)oxy)undecyl)oxy)-3-(phenylsulfonyl)-1,2,5-oxadiazole 2-oxide], for which the “TI (Therapeutic Index)” value was 0.65.

Take `CC(=O)OC(C)(C)/C=C/C(=O)[C@](C)(O)C1[C@H](OC(=O)CCC(=O)OCC#CCOc2no[n+]([O-])c2S(=O)(=O)c2ccccc2)C[C@@]2(C)C3CC=C4C(CC(O)C(=O)C4(C)C)[C@]3(C)C(=O)C[C@]12C` (stereo partly drawn) [Compound 10m, 4-((4-((4-(((9R,13R,14S,16R)-17-((R,E)-6-Acetoxy-2-hydroxy-6-methyl-3-oxohept-4-en-2-yl)-2-hydroxy-4,4,9,13,14-pentamethyl-3,11-dioxo-2,3,4,7,8,9,10,11,12,13,14,15,16,17-tetradecahydro-1H-cyclopenta[a]phenanthren-16-yl)oxy)-4-oxobutanoyl)oxy)but-2-yn-1-yl)oxy)-3-(phenylsulfonyl)-1,2,5-oxadiazole 2-oxide]: the “TI (Therapeutic Index)” value is 2.18.

Regarding `CC(=O)OC(C)(C)/C=C/C(=O)[C@](C)(O)C1[C@H](OC(=O)CCC(=O)OCCCCCCCCOc2no[n+]([O-])c2S(=O)(=O)c2ccccc2)C[C@@]2(C)C3CC=C4C(CC(O)C(=O)C4(C)C)[C@]3(C)C(=O)C[C@]12C` (stereo partly drawn) [Compound 10g, 4-((8-((4-(((9R,13R,14S,16R)-17-((R,E)-6-Acetoxy-2-hydroxy-6-methyl-3-oxohept-4-en-2-yl)-2-hydroxy-4,4,9,13,14-pentamethyl-3,11-dioxo-2,3,4,7,8,9,10,11,12,13,14,15,16,17-tetradecahydro-1H-cyclopenta[a]phenanthren-16-yl)oxy)-4-oxobutanoyl)oxy)octyl)oxy)-3-(phenylsulfonyl)-1,2,5-oxadiazole 2-oxide], the “TI (Therapeutic Index)” value turned out to be 3.61.

As to `CC(=O)OC(C)(C)/C=C/C(=O)[C@](C)(O)C1[C@H](OC(=O)CCC(=O)N2CCN(CCOc3no[n+]([O-])c3S(=O)(=O)c3ccccc3)CC2)C[C@@]2(C)C3CC=C4C(CC(O)C(=O)C4(C)C)[C@]3(C)C(=O)C[C@]12C` (stereo partly drawn) [Compound 9c, 4-(2-(4-(4-(((9R,13R,14S,16R)-17-((R,E)-6-Acetoxy-2-hydroxy-6-methyl-3-oxohept-4-en-2-yl)-2-hydroxy-4,4,9,13,14-pentamethyl-3,11-dioxo-2,3,4,7,8,9,10,11,12,13,14,15,16,17-tetradecahydro-1H-cyclopenta[a]phenanthren-16-yl)oxy)-4-oxobutanoyl)piperazin-1-yl)ethoxy)-3-(phenylsulfonyl)-1,2,5-oxadiazole 2-oxide], the “TI (Therapeutic Index)” value was found to be 2.84.

Consider `CC(=O)OC(C)(C)/C=C/C(=O)[C@](C)(O)C1[C@H](OC(=O)CCc2ccccc2NC(=O)OC(C)(C)C)C[C@@]2(C)C3CC=C4C(C[C@H](O)C(=O)C4(C)C)[C@]3(C)C(=O)C[C@]12C` (stereo partly drawn) [Compound 3g, (2S,9R,13R,14S,16R)-17-((R,E)-6-Acetoxy-2-hydroxy-6-methyl-3-oxohept-4-en-2-yl)-2-hydroxy-4,4,9,13,14-pentamethyl-3,11-dioxo-2,3,4,7,8,9,10,11,12,13,14,15,16,17-tetradecahydro-1H-cyclopenta[a]phenanthren-16-yl 3-(2-((tert-butoxycarbonyl)amino)phenyl)propanoate], for which the “TI (Therapeutic Index)” value stood at 0.19.

Consider `CC(=O)OC(C)(C)/C=C/C(=O)[C@](C)(O)C1[C@H](OC(=O)c2cccc(F)c2)C[C@@]2(C)C3CC=C4C(C[C@H](O)C(=O)C4(C)C)[C@]3(C)C(=O)C[C@]12C` (stereo partly drawn) [Compound 3n, (2S,9R,13R,14S,16R)-17-((R,E)-6-Acetoxy-2-hydroxy-6-methyl-3-oxohept-4-en-2-yl)-2-hydroxy-4,4,9,13,14-pentamethyl-3,11-dioxo-2,3,4,7,8,9,10,11,12,13,14,15,16,17-tetradecahydro-1H-cyclopenta[a]phenanthren-16-yl 3-fluorobenzoate], for which the “TI (Therapeutic Index)” value is reported as 0.61.
